Source: PubChem BioAssay AID652259 (Drosophila RNAi Screening Center, 2013)

Screen: 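Genome-wide hunt for genes that control Wingless pathway activity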 (primary screen)
System: Drosophila clone 8 imaginal disc epithelial cells
Knock-down reagent: long dsRNA against Drosophila genes
Conditions: pathway stimulated by co-transfected Wingless expression plasmid
Read-out: 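Firefly luciferase from a tcf-site Wingless reporter, measured alongside co-transfected Renilla luciferase that tracks transfection; pathway stimulated by a Wingless plasmid; the firefly-to-Renilla ratio is not deposited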
Reading the numbers: firefly reporter light: higher = more Wg reporter light, before normalisation; Renilla control light: higher = more transfected or surviving cells
Rule for the call: 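Strong candidates differ from their plate mean by at least two out of four per-plate statistical tests; weak candidates meet just one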
Meaning of the calls: active = candidate regulator (raises or lowers reporter); inactive = not a candidate
The deposit covers about 22,000 reagents; below is an unselected part of those with a known target gene and a result. Over the whole deposit, 233 (1.1%) got an active call. 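Light values are raw, unnormalised plate reads; the ratio scores behind the reporter calls were not deposited.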 Not stated in the record: the amount of reagent, the time to read-out, the dose of the treatment.

How did the screen score Pgi (Phosphoglucose isomerase)?
firefly reporter light, replicate 1: 8083; Renilla control light, replicate 1: 2336; Call: inactive

What is on record for hts (hu li tai shao)?
firefly reporter light, replicate 1: 15629; Renilla control light, replicate 1: 7110; Call: inactive

How did the screen score Dhfr (Dihydrofolate reductase)?
firefly reporter light, replicate 1: 19570; Renilla control light, replicate 1: 5920; Call: inactive

What is on record for apn (apnoia)?
firefly reporter light, replicate 1: 14685; Renilla control light, replicate 1: 3144; Call: inactive

For CG33454, how do the results read?
firefly reporter light, replicate 1: 6.90e5; firefly reporter light, replicate 2: 6.97e5; Renilla control light, replicate 1: 2.76e5; Renilla control light, replicate 2: 2.16e5; Call: inactive

For CG6701, what does the deposit list?
firefly reporter light, replicate 1: 4454; Renilla control light, replicate 1: 2274; Call: inactive

What did the screen give for CG3430?
reporter change call, replicate 1: Wg reporter activity lowered; firefly reporter light, replicate 1: 6967; Renilla control light, replicate 1: 3367; Call: inactive

What did the screen give for Ir56a (Ionotropic receptor 56a)?
firefly reporter light, replicate 1: 19449; Renilla control light, replicate 1: 11105; Call: inactive

What did the screen give for CG7675?
firefly reporter light, replicate 1: 2864; firefly reporter light, replicate 2: 8199; Renilla control light, replicate 1: 1088; Renilla control light, replicate 2: 2944; Call: inactive

For tth (toothrin), how do the results read?
firefly reporter light, replicate 1: 5435; firefly reporter light, replicate 2: 9645; Renilla control light, replicate 1: 698; Renilla control light, replicate 2: 1345; Call: inactive

With CG11456, what was measured?
firefly reporter light, replicate 1: 3542; Renilla control light, replicate 1: 1564; Call: inactive

Which result is listed for bsk (basket)?
firefly reporter light, replicate 1: 13531; Renilla control light, replicate 1: 4213; Call: inactive

For zen2 (zerknullt-related), how do the results read?
firefly reporter light, replicate 1: 16680; Renilla control light, replicate 1: 4177; Call: inactive

Laid out differently: results already given.
gene | reporter change call, replicate 1 | firefly reporter light, replicate 1 | firefly reporter light, replicate 2 | Renilla control light, replicate 1 | Renilla control light, replicate 2 | Call
apn (apnoia) | – | 14685 | – | 3144 | – | inactive
CG33454 | – | 6.90e5 | 6.97e5 | 2.76e5 | 2.16e5 | inactive

More entries follow.
Which result is listed for GatA (Glutamyl-tRNA amidotransferase, subunit A)?
firefly reporter light, replicate 1: 2179; firefly reporter light, replicate 2: 6603; Renilla control light, replicate 1: 465; Renilla control light, replicate 2: 2410; Call: inactive

Which result is listed for phol (pleiohomeotic like)?
firefly reporter light, replicate 1: 4480; Renilla control light, replicate 1: 1784; Call: inactive

With Zpr1, what was measured?
firefly reporter light, replicate 1: 3299; firefly reporter light, replicate 2: 5079; Renilla control light, replicate 1: 875; Renilla control light, replicate 2: 1664; Call: inactive

For CG5885, what was measured?
firefly reporter light, replicate 1: 5715; Renilla control light, replicate 1: 1920; Call: inactive

What did the screen give for bor (belphegor)?
firefly reporter light, replicate 1: 17290; Renilla control light, replicate 1: 4141; Call: inactive

With Fkbp14 (FK506-binding protein 14), what was measured?
firefly reporter light, replicate 1: 18100; Renilla control light, replicate 1: 4981; Call: inactive

What is on record for tadr (torn and diminished rhabdomeres)?
firefly reporter light, replicate 1: 11840; Renilla control light, replicate 1: 3280; Call: inactive

Which result is listed for CG12241?
firefly reporter light, replicate 1: 5399; Renilla control light, replicate 1: 2017; Call: inactive

What is on record for CG10226?
firefly reporter light, replicate 1: 4459; Renilla control light, replicate 1: 1978; Call: inactive

For CG31706, how do the results read?
firefly reporter light, replicate 1: 4.28e5; firefly reporter light, replicate 2: 4.49e5; Renilla control light, replicate 1: 1.89e5; Renilla control light, replicate 2: 1.43e5; Call: inactive

How did the screen score Hsp60C (Heat shock protein 60C)?
firefly reporter light, replicate 1: 2251; firefly reporter light, replicate 2: 5686; Renilla control light, replicate 1: 920; Renilla control light, replicate 2: 954; Call: inactive

How did the screen score Or74a (Odorant receptor 74a)?
firefly reporter light, replicate 1: 6355; Renilla control light, replicate 1: 2589; Call: inactive
